Our source for the binding values is paper doi:10.1101/2023.01.30.525655.

Assay [1] deals with MDL2, yeast two-hybrid fusion (Arabidopsis thaliana) (UniProt F4K9G4). Briefly: two-hybrid.
Assay [2] concerns the target T1, RED-NHS-MIF-6xHis (human MIF-6xHis labelled with the RED-NHS dye) (human) (UniProt P14174).
T1 sequence (chain, RED-NHS dye (chemically labeled)): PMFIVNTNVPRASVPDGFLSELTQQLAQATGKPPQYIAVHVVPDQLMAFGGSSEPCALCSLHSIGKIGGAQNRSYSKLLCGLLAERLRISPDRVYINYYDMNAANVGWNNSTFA
Briefly: MST.

Assay [3] addresses T2, Biotin-MIF-6xHis (biotinylated human MIF-6xHis) (human) (UniProt P14174).
T2 sequence (chain, biotin (EZ-Link Sulfo-NHS-LC-Biotinylation Kit)): T1 sequence (chain, RED-NHS dye (chemically labeled))
Briefly: pull-down.

For assay [4], the target named is T3, MIF-6xHis (human macrophage migration inhibitory factor, hexahistidine-tagged) (human) (UniProt P14174).
T3 sequence: T1 sequence (chain, RED-NHS dye (chemically labeled))
Briefly: SEC.

In assay [5] the target is T1, RED-NHS-MIF-6xHis (human MIF-6xHis labelled with the RED-NHS dye) (human). Briefly: MST. The source holds these as a separate data set.

Read-outs that look alike come from different tables or passages of the source. No constants are given. Whether binding was seen depends on the method and setting. For some of these results: A result given as binding can be weak or reduced; the word gives no strength. For some of these results: Where a sequence is shown, tags or fusion partners need not be part of it. For some of these results: Binding seen in cells or lysates may run through a third protein.

For “MDL1, yeast two-hybrid fusion (from UniProt F4KAK0)”, in assay [1], the binding result is reported as “binds”. As to “MDL1-6xHis (Arabidopsis thaliana MIF/D-DT-like protein 1, hexahistidine-tagged)”, the binding entry is recorded as “no binding (only with 100 µM p425)” in assay [2], “binds” in assay [3], “binds” in assay [4] and “no binding (only heat-denatured MDL1)” in assay [5].

Take “MDL2-6xHis (Arabidopsis thaliana MIF/D-DT-like protein 2, hexahistidine-tagged) (from UniProt F4K9G4)”: the binding entry in assay [2] is on record as “no binding (only with 100 µM p425)”.

With “MDL3-6xHis (Arabidopsis thaliana MIF/D-DT-like protein 3, hexahistidine-tagged) (from UniProt F4J4H3)”, the binding entry in assay [2] is listed as “no binding (only with 100 µM p425)”.
